Assay results published in paper PMC6757106, “Prokaryotic soluble overexpression and purification of oncostatin M using a fusion approach and genetically engineered E. coli strains” (Scientific Reports, 2019).
These are yes or no findings as the source states them, for the method shown. Some results given as binding are weak or reduced against the parent protein; the word gives no strength. Tags and fused reporters may be left off the sequences shown.

Biological target: Human Oncostatin M (OSM), tag-free, purified from the His6-OSM fusion expressed in Origami 2 (human) (UniProt P13725)
Test: non-reducing SDS-PAGE; final purified tag-free OSM run on 10% tricine SDS-PAGE under reducing and non-reducing conditions, Coomassie stained; both purified

B1: Human Oncostatin M (OSM), tag-free, purified from the His6-OSM fusion expressed in Origami 2 (ligand, UniProt P13725 26-221, looked up)
chain: AAIGSCSKEYRVLLGQLQKQTDLMQDTSRLLDPYIRIQGLDVPKLREHCRERPGAFPSEETLRGLGRRGFLQTLNATLGCVLHRLADLEQRLPKAQDLERSGLNIEDLEKLQMARPNILGLRNNIYCMAQLLDNSDTAEPTKAGRGASQPPTPTPASDAFQRKLEGCRFLHGYHRFMHSVGRVFSKWGESPNRSRR
notes: Oncostatin M, human; Tag removed with TEV protease at ENLYFQ/G; a glycine probably stays at the N-terminus (surmised from the cysteine numbering); Printed size 22.05 kDa; also called His6 fusion-derived OSM; OSM purified from His-OSM; source: E. coli Origami 2(DE3), 18 °C, purified (IMAC with 2 M urea, TEV protease cleavage, second IMAC); not shown: His6, N-terminal, cleaved
binding: binds weakly
